Laboratory results from the supplement of paper PMC10382679.
Single values of this set are uncertain.

B1: Rpb7; numbered along this chain (parent)
chain: MFFIKDLSLNITLHPSFFGPRMKQYLKTKLLEEVEGSCTGKFGYILCVLDYDNIDIQRGRILPTDGSAEFNVKYRAVVFKPFKGEVVDGTVVSCSQHGFEVQVGPMKVFVTKHLMPQDLTFNAGSNPPSYQSSEDVITIKSRIRVKIEGCISQVSSIHAIGSIKEDYLGAI

What was measured:
[1] = variants of: B1; test: log2 fold change of mutant abundance, UV-irradiated vs unirradiated; higher = more UV resistant (enriched after UV); conditions: with Saccharomyces cerevisiae rad7Δ rad26Δ; UV dose (J/m2): 10; genetic background: rad7Δ rad26Δ rpb7Δ + plasmid RPB7 library; outgrowth: 10 cell divisions
[2] = variants of: B1; test: NOISeq theta enrichment statistic, UV-irradiated vs unirradiated (dimensionless); higher = more UV resistant (enriched after UV); conditions: with Saccharomyces cerevisiae rad7Δ rad26Δ; UV dose (J/m2): 10; genetic background: rad7Δ rad26Δ rpb7Δ + plasmid RPB7 library; outgrowth: 10 cell divisions

| Variant | log2 fold change of mutant abundance [1] | NOISeq theta enrichment statistic [2] |
| --- | --- | --- |
| Y130H | -0.153 | -0.341 |
| D118S | 0.209 | 0.189 |
| D118E | 0.00598 | 0.046 |
| V87T | -0.159 | -0.135 |
| V87S | 0.25 | 0.194 |
| Q131I | -0.959 | -0.428 |
| H97A | 0.125 | 0.203 |
| H97L | 0.0219 | 0.0765 |
| I139L | 0.0932 | 0.38 |
| V92Y | 0.0874 | 0.0832 |
| V92I | -0.0262 | -0.136 |
| V92L | 0.0907 | 0.19 |
| V92S | -0.0465 | -0.0495 |
| V92H | 0.491 | 0.274 |
| V92E | 0.206 | 0.19 |
| S152D | 0.124 | 0.0816 |
| S152C | 0.212 | 1.01 |
| V77Y | -0.192 | -0.145 |
| V77G | -0.0709 | -0.208 |
| V77I | 0.122 | 0.346 |
| F109N | -0.102 | -0.109 |
| F109A | 0.182 | 0.125 |
| F109Y | -0.0955 | -0.439 |
| I54F | 0.0446 | 0.0357 |

| Variant | log2 fold change of mutant abundance [1] | NOISeq theta enrichment statistic [2] |
| --- | --- | --- |
| N122E | 0.224 | 0.157 |
| N122R | 0.486 | 0.376 |
| N122Y | 0.0305 | 0.095 |
| N53D | 0.106 | 0.395 |
| N53I | 0.308 | 1.49 |
| N53K | 0.104 | 0.36 |
| N53M | -0.155 | -0.082 |
| Y74D | -0.139 | -0.314 |
| Y74G | 0.128 | 0.0965 |
| Y74N | -0.175 | -0.176 |
| V101F | -0.00291 | -0.00246 |
| V101T | 0.11 | 0.115 |
| V101Q | 0.488 | 0.362 |
| V101C | 0.064 | 0.0657 |
| H158I | 0.0963 | 0.0588 |
| L168F | 0.0721 | 0.102 |
| D88G | -0.0672 | -0.259 |
| D88Y | 0.142 | 0.51 |
| D88S | -0.117 | -0.116 |
| D88V | 0.036 | 0.214 |
| G40V | -0.175 | -0.325 |
| D50R | -0.405 | -0.169 |
| D50F | 0.439 | 0.256 |
| I157V | 0.241 | 0.804 |

| Variant | log2 fold change of mutant abundance [1] | NOISeq theta enrichment statistic [2] |
| --- | --- | --- |
| I157R | 0.227 | 0.127 |
| S132K | 0.0309 | 0.0286 |
| H113N | 0.223 | 0.854 |
| H113Y | -0.0619 | -0.212 |
| H113Q | 0.255 | 1.1 |
| H113I | 0.137 | 0.104 |
| P127S | -0.439 | -0.893 |
| T120P | 0.0419 | 0.0909 |
| T120N | 0.0178 | 0.0604 |
| V103G | 0.0608 | 0.241 |
| V103D | 0.0718 | 0.0948 |
| Q117R | -0.0224 | -0.0979 |
| Q117V | 0.129 | 0.0782 |
| S133F | -0.104 | -0.23 |
| R75K | -0.049 | -0.15 |
| R75C | -0.0697 | -0.0619 |
| R75Q | -0.436 | -0.309 |
| S67L | -0.291 | -0.305 |
| P105I | 0.616 | 0.396 |
| P105A | -0.0793 | -0.146 |
| K83Y | 0.418 | 0.367 |
| K83M | 0.153 | 0.141 |
| Q24E | 0.17 | 0.22 |
| S93E | 0.105 | 0.131 |

Copied from the list:
Entry for H113I under log2 fold change of mutant abundance [1]: 0.137
Entry for P105I under log2 fold change of mutant abundance [1]: 0.616
Entry for P105A under NOISeq theta enrichment statistic [2]: -0.146
Entry for T120N under NOISeq theta enrichment statistic [2]: 0.0604

More results

| Variant | log2 fold change of mutant abundance [1] | NOISeq theta enrichment statistic [2] |
| --- | --- | --- |
| S93L | -0.0693 | -0.239 |
| S16A | -0.391 | -0.603 |
| V48A | -0.0198 | -0.0323 |
| V48G | -0.0629 | -0.0734 |
| S129C | -0.106 | -0.0884 |
| S129L | -0.158 | -0.336 |
| A170D | -0.133 | -0.322 |
| K146I | 0.0829 | 0.192 |
| L49I | 0.101 | 0.389 |
| K27P | 0.167 | 0.126 |
| I56N | 0.119 | 0.32 |
| C150H | 0.633 | 0.356 |
| E100L | -0.311 | -0.266 |
| E100A | 0.0396 | 0.0952 |
| F18P | -0.244 | -0.113 |
| Y44C | 0.214 | 0.428 |
| Y44D | 0.0586 | 0.0709 |
| E148A | 0.249 | 0.387 |
| E148V | -0.259 | -0.984 |
| E134V | -0.419 | -1.4 |
| E134K | -0.513 | -1.2 |
| E134T | -0.289 | -0.165 |
| E134A | -0.0611 | -0.105 |
| T28L | -0.43 | -0.314 |

| Variant | log2 fold change of mutant abundance [1] | NOISeq theta enrichment statistic [2] |
| --- | --- | --- |
| L9H | -0.0402 | -0.22 |
| N126E | 0.254 | 0.188 |
| I11R | 0.228 | 0.159 |
| E32Y | -0.456 | -0.262 |
| E32K | -0.202 | -0.515 |
| V78F | -0.00206 | -0.00659 |
| V78I | -0.013 | -0.0315 |
| V78A | -0.0968 | -0.199 |
| I137M | 0.135 | 0.139 |
| I137T | 0.00252 | 0.00397 |
| I137N | -0.168 | -0.3 |
| K41R | 0.369 | 1.21 |
| K107R | -0.0285 | -0.121 |
| K107E | 0.0857 | 0.327 |
| K107S | 0.205 | 0.186 |
| E85D | -0.0579 | -0.307 |
| P15A | 0.135 | 0.157 |
| M106E | 0.0555 | 0.0421 |
| M106I | 0.0927 | 0.454 |
| T39S | 0.0374 | 0.17 |
